Reference: US9023795B2 (Shanghai First People's Hospital, priority 2010, dated 2015)

experiment: general procedure: Fmoc solid-phase peptide synthesis; 2-Chlorotrityl Chloride Resin; settings: whole synthesis

| Sequence | final HPLC purity [%] |
| --- | --- |
| CASLLRCTGCCGDENLHCAPA | 97.31 |
| CVSLLRCTGCC GDENLHCVPV (CVSLLRCTGCCGDENLHCVPV; angiogenesis-inhibiting peptide ZY1) | 98.85 |
| CVSLLRCTGCCGDENLHC | 98.63 |
| VSLLRCTGCCGDENLHCVPV | 98.01 |

Plain letter strings leave the end groups untold.
